These are yes or no findings as the source states them, for the method shown. In cells and extracts the contact can be indirect. Sequences can lack the tags named with a protein.
Target: T1, CEP44-Flag (siRNA-resistant CEP44 cDNA, tetracycline-inducible, in RPE1 cells) (human) (UniProt Q9C0F1)
T1 sequence: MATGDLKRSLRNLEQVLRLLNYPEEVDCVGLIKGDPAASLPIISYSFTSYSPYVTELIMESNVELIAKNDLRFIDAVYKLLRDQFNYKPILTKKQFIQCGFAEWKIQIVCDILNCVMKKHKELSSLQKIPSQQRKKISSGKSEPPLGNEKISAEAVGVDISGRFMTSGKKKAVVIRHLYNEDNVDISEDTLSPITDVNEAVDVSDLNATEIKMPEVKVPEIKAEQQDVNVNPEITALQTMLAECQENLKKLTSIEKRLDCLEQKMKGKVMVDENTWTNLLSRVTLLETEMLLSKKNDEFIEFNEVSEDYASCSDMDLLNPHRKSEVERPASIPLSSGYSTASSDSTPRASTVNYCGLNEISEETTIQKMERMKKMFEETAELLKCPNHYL
Experiment: co-IP; Anti-FLAG M2 beads; lysate of 3 x 10^6 RPE1 cells expressing CEP44-Flag constructs; lysis in 250 mM NaCl, 10 mM Tris-Cl, 0.5 mM EDTA, 0.5% NP-40, Benzonase, pH 7.5; 2.5 h at 4 °C; washes with 150 mM NaCl, 10 mM Tris-Cl pH 7.5; immunoblot

Chains of the proteins cited; added tags and fusions are not shown.
UniProt Q9C0D2: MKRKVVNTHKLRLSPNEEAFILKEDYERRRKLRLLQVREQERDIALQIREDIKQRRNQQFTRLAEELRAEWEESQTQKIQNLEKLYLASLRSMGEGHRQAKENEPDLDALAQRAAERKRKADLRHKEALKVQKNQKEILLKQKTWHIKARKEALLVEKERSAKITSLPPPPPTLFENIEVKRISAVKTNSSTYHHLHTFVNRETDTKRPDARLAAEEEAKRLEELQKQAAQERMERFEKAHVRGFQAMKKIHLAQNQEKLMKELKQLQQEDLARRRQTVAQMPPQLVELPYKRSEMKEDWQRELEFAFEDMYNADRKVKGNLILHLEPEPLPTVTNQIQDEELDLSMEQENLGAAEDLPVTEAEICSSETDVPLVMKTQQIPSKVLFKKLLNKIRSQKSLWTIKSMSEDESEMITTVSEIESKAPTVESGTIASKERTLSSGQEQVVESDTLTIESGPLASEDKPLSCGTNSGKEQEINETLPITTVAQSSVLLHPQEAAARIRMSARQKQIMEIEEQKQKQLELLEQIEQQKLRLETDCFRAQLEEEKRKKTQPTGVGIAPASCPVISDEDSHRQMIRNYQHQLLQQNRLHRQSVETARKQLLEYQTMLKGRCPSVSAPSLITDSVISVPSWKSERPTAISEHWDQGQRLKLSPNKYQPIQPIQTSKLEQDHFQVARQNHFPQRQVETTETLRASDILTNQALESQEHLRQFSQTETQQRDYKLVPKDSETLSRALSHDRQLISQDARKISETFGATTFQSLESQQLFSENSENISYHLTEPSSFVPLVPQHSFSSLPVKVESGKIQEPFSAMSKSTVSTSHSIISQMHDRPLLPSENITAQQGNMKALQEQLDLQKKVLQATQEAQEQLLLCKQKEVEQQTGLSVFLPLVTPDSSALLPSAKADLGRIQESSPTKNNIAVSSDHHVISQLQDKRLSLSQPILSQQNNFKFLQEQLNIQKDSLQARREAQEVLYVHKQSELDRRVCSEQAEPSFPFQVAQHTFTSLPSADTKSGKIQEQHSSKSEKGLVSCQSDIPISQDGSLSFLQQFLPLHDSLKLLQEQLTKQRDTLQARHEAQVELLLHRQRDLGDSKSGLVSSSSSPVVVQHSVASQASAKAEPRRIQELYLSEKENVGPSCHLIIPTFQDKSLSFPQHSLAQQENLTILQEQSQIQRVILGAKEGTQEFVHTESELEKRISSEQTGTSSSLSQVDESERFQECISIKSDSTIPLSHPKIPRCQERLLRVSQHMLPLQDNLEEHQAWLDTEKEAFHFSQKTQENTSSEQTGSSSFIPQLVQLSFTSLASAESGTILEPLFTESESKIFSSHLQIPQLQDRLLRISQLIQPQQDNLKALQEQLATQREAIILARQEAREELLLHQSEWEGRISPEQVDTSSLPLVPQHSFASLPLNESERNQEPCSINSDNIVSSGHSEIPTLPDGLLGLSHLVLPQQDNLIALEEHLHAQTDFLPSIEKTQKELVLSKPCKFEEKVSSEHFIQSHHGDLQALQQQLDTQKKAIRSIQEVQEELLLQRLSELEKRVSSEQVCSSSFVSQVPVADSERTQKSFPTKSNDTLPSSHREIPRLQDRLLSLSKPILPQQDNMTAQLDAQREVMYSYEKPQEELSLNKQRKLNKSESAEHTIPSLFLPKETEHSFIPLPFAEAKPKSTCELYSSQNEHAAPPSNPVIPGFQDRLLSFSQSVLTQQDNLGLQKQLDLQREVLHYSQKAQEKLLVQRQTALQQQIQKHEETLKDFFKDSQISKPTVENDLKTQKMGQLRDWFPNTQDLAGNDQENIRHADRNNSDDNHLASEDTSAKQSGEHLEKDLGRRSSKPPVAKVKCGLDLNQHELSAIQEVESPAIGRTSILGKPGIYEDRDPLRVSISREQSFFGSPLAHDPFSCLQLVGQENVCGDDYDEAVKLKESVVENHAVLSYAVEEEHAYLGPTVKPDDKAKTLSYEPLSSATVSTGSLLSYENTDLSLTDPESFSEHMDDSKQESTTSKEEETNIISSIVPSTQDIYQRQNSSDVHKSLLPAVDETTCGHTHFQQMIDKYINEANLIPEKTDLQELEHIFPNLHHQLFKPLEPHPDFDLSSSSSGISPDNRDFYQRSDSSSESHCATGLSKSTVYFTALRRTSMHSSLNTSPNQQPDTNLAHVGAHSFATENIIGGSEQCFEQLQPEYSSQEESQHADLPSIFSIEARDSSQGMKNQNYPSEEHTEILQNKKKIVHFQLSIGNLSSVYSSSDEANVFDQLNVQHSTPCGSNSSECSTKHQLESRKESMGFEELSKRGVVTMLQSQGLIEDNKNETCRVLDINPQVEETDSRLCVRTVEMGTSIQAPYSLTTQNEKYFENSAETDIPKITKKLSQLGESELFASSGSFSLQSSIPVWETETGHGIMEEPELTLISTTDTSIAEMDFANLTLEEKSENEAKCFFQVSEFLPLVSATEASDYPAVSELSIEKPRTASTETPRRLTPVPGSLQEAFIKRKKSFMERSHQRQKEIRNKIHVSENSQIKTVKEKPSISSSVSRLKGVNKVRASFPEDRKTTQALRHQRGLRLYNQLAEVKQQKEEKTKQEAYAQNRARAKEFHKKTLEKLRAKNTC

“CEP295 (endogenous, RPE1 cells) (from UniProt Q9C0D2 1-2601)” was tested, and the binding was “no binding”.

Source: PMC7021698
